Measured values reported in article PMC12607714.

Protein sequences, listed by entry. Tags and fused reporters are not part of them. Lines headed by an entry give the natural chain unless they say otherwise; changes in a name come on top.
UniProt A0A509APB6: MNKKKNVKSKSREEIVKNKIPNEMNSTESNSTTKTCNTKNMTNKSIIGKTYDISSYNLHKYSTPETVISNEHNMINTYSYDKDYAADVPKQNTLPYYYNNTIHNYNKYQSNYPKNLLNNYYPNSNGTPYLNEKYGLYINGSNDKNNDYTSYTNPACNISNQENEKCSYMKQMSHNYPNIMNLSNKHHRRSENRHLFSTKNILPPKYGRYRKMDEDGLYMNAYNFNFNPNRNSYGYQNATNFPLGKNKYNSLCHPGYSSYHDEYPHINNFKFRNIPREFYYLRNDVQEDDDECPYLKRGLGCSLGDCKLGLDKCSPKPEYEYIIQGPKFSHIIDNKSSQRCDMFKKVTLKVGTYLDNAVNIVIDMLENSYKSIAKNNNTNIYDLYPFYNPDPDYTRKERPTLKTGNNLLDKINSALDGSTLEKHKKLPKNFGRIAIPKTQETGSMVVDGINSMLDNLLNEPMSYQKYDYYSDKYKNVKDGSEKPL
UniProt A0A509AJI6: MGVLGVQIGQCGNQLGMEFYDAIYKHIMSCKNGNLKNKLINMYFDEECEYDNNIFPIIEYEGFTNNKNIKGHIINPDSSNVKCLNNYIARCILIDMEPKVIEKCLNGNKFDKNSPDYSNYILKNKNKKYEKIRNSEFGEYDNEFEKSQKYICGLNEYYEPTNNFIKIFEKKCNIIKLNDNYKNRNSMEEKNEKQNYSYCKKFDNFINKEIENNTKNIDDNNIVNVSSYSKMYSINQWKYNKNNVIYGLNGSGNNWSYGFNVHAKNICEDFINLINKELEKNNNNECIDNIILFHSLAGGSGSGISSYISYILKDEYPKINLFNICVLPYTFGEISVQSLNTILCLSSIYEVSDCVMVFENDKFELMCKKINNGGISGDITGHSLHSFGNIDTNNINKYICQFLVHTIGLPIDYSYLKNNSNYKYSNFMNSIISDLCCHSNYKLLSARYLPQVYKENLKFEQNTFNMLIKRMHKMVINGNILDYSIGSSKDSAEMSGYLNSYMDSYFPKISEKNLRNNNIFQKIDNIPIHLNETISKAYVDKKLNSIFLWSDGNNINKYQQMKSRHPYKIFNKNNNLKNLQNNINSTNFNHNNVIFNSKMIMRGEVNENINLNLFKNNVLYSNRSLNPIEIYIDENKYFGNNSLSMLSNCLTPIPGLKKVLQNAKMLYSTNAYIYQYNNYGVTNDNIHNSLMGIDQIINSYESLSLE

What was measured:
[1] = target: ISC1-Myc-His (P. berghei inner membrane suture protein 1, Myc-His-tagged) (Plasmodium berghei); test: co-IP; reciprocal: Flag-IMCp co-expressed with TubD-Myc-His or ISC1-Myc-His in HEK293T; lysate on anti-Myc beads, overnight at 4°C, washes with PBS-T; blots with anti-Flag and anti-Myc
[2] = target: TubD-Myc-His (P. berghei δ-tubulin, Myc-His-tagged) (Plasmodium berghei); test: as above
[3] = target: Flag-tagged IMCp domain (K134-K228) of PbIMC1j (Plasmodium berghei); test: co-IP; Flag-IMCp co-expressed with TubD-Myc-His or ISC1-Myc-His in HEK293T; lysate on Flag-conjugated beads (IgG-conjugated beads as control), overnight at 4°C, washes with PBS-T; blots with anti-Myc and anti-Flag

| Substance | binding [1] | binding [2] | binding [3] |
| --- | --- | --- | --- |
| Flag-tagged IMCp domain (K134-K228) of PbIMC1j (from UniProt A0A509AP25) (domain or fragment) | binds | binds |  |
| ISC1-Myc-His (P. berghei inner membrane suture protein 1, Myc-His-tagged) (from UniProt A0A509APB6) |  |  | binds |
| TubD-Myc-His (P. berghei δ-tubulin, Myc-His-tagged) (from UniProt A0A509AJI6) |  |  | binds |

Results are given in words; binding and its absence hold for the method and conditions named. Binding seen in cells or lysates may run through a third protein. A result given as binding can be weak or reduced; the word gives no strength.
